From patent US20010025038A1, “Method of reducing craving in mammals” (priority 1997, published 2001)
Where a name gives a salt, the structure may show the parent alone. At least one structure is not confirmed: it was looked up by name or label, or the drawing left a doubt.

Columns and labels:
[1] = test system: adult male rats (strain: CD); test: bar press for food on fixed-ratio schedule FR30 (Example 3); type: in vivo
Method: In this example, adult male rats (strain: CD) were trained to bar press for food on a fixed-ratio schedule of 30 (FR30). A rat had to press a bar 30 times in order to receive one 45 mg pellet of food. Each training session was 30 minutes long. The total response rate (total # of bar presses/30 minutes), i.e., the rate at which rats pressed the bar, was measured and then analyzed in animals that were initially given saline (control animals) and then doses of the D1/D5 antagonists SCH23390 or SCH39166. Each group of six animals received one dose of drug given subcutaneously in a volume of 1 ml/kg 30 minutes before the start of the session.

[2] = up to 3 mg/k; cited from earlier work

## CN1CCc2cc(Cl)c(O)cc2[C@@H](c2ccccc2)C1 [SCH 23390, (d)-7-chloro-8-hydroxy-3-methyl-1-phenyl-2,3,4,5-tetrahydro-1H-3-benzazepine maleate, reference compound]
[1]; 0.01 mpk subcutaneously 30 minutes before session, FR30
  bar press rate relative to saline-treated control animals: significantly reduced the bar press rate
[1]; SCH 23390 0.003-0.03 mpk, SCH 39166 0.001-0.3 mpk, subcutaneously
  response rate across doses: dose-related decrease in response rate until responses were eliminated at the highest dose
[2]
  effect on total food intake, meal size or feeding rate: no effect
